Results as given in patent US9931355B2, “Combination of compounds derived from gallic acid for the treatment of cancer” (PONTIFICLA UNIVERSIDAD JAVERIANA, priority 2012, dated 2018).

System: MCF7 (human breast cancer)
Experiment: MTT cytotoxicity assay on MCF7 cells
Assay type: cell-based
Settings: 48 hours, read-out: 50% inhibitory concentration
Method: The human cell lines used were K562 (human erythroleukemia) MCF7 (human breast cancer) and A375 (human melanoma). The murine cell lines used were Mel Rel (murine melanoma) and 4T1 (murine mammary cancer). […] The cell line 4T1 was also maintained with 1 mM of sodium pyruvate (Eurobio, Toulouse, FR). For the assays on normal cells, human mononucleocytes from the venous peripheral blood of healthy donors (PBMC) were obtained, and were separated by centrifugation using a Ficoll-Hypaque density gradient (GE Healthcare Bio-Sciences AB, Bjorkgatan, Uppsala, Sweden). The cytotoxic effect of the combination of the invention on tumor cells and normal cells was evaluated by direct microscopic observation and via assays with MTT (Sigma, Saint Louis Mo., USA). […] The formazan crystals were dissolved with dimethyl sulfoxide (DMSO) and the optical density was measured at 540 nm in a Multiskan MCC/340 machine (Labsystems, Thermo Fisher Scientific, Waltham, USA). The cytotoxic effect of FA-CS was evaluated with MTT on various tumoral cell lines. The […] value on the various cell lines was calculated using the Minitab software. […]

## COc1cccc2c1C(=O)c1c(O)c3c(c(O)c1C2=O)C[C@@](O)(C(=O)CO)C[C@@H]3O[C@H]1C[C@H](N)[C@H](O)[C@H](C)O1 [Doxorubicin]
  IC50: 5.3 ± 0.5 mg/L
